These are yes or no findings as the source states them, for the method shown. Some entries that bind do so weakly or less than the wild type. Tags and fused reporters may be left off the sequences shown. Values belong to the binder of their own block, whether it stands above or below them.
Tests used:
Experiment in all cases: two-hybrid
[1] = biological target: T1, Schizosaccharomyces pombe Vps25 (Schizosaccharomyces pombe) (UniProt O74967)
T1 sequence: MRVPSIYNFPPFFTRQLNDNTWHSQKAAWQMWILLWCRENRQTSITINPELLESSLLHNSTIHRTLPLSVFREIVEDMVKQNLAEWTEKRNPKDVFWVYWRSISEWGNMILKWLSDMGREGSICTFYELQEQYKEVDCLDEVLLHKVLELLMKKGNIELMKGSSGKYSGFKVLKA

[2] = biological target: T2, Schizosaccharomyces pombe Did4 (Schizosaccharomyces pombe) (UniProt O14177)
T2 sequence: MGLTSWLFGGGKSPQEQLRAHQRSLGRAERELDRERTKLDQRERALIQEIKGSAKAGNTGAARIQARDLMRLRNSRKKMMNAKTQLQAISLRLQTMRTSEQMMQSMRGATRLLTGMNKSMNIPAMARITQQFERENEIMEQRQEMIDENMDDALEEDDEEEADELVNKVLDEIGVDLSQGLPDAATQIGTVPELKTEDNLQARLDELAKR

[3] = biological target: T3, Schizosaccharomyces pombe Vps36 (Schizosaccharomyces pombe) (UniProt O43038)
T3 sequence: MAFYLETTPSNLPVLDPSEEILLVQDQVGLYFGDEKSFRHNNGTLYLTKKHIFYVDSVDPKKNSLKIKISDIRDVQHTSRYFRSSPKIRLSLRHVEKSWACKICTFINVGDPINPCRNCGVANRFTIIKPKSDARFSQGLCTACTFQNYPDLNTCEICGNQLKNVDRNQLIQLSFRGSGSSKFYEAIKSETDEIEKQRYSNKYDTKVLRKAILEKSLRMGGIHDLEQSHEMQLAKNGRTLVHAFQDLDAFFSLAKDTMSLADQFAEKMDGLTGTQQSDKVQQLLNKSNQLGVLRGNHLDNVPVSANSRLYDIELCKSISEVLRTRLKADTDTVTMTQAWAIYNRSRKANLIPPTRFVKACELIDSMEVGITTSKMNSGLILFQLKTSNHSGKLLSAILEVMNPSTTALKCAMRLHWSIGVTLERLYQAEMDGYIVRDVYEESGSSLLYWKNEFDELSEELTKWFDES

[4] = biological target: T4, Schizosaccharomyces pombe Vps28 (Schizosaccharomyces pombe) (UniProt O13872)
T4 sequence: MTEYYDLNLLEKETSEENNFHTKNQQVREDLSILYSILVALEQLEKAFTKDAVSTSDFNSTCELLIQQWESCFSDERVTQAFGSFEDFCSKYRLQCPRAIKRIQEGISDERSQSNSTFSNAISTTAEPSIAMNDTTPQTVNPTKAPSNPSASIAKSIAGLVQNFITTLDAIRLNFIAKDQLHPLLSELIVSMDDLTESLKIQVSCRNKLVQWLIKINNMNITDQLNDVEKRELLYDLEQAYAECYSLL

binding [1]: binds
B1: Schizosaccharomyces pombe Vps36 (protein, UniProt O43038 1-467)
chain: MAFYLETTPSNLPVLDPSEEILLVQDQVGLYFGDEKSFRHNNGTLYLTKKHIFYVDSVDPKKNSLKIKISDIRDVQHTSRYFRSSPKIRLSLRHVEKSWACKICTFINVGDPINPCRNCGVANRFTIIKPKSDARFSQGLCTACTFQNYPDLNTCEICGNQLKNVDRNQLIQLSFRGSGSSKFYEAIKSETDEIEKQRYSNKYDTKVLRKAILEKSLRMGGIHDLEQSHEMQLAKNGRTLVHAFQDLDAFFSLAKDTMSLADQFAEKMDGLTGTQQSDKVQQLLNKSNQLGVLRGNHLDNVPVSANSRLYDIELCKSISEVLRTRLKADTDTVTMTQAWAIYNRSRKANLIPPTRFVKACELIDSMEVGITTSKMNSGLILFQLKTSNHSGKLLSAILEVMNPSTTALKCAMRLHWSIGVTLERLYQAEMDGYIVRDVYEESGSSLLYWKNEFDELSEELTKWFDES

binding [2]: binds
B2: Schizosaccharomyces pombe Vps24 (protein, UniProt O14296 1-231)
chain: MQTVRSYFFGPTPQEQNRKWQSIIRKEQRQLDRQVYHLKAGRKKAEVQLKQLAKQSDITNMRILAKEIARANRHGKRLAESKALLGSLSLQLNDQMAMLKIQGTMQSSTKIMQDVSSLIRLPQLSETMRNLSMELTKAGVLEEMRDEMFLPVEDDEELMDLADEDEEVQEILTKYNVIPAPSEKAADAATHREQSLKQALPSLSNGIAKDSTEIDEEQLLDIRDKLDALKS

binding [1]: binds
B3: Schizosaccharomyces pombe Vps20 (protein, UniProt O94318 1-226)
chain: MGVNSSKINDKDRSILSIKEQRDKLLRYSKRLEKIEQLEIDIARKCLRDSDKRGALRALKAKKLYSGLITQTYGQLGNIEQLLSTIEFTLIQKDVMFGLQEGTNLIRQLQADMPLERVGRICNDRDEAMSYVDEVNDMLQGRMSRDQEDEIQEELDSLIREQEDEKVKDLEKPGFTPSTGVDVLPSVPLKNAIPSLDESFPKAASVSNTSSAVVIDEELRKDPVLG

binding [3]: binds
B4: Schizosaccharomyces pombe Vps28 (protein, UniProt O13872 1-248)
chain: MTEYYDLNLLEKETSEENNFHTKNQQVREDLSILYSILVALEQLEKAFTKDAVSTSDFNSTCELLIQQWESCFSDERVTQAFGSFEDFCSKYRLQCPRAIKRIQEGISDERSQSNSTFSNAISTTAEPSIAMNDTTPQTVNPTKAPSNPSASIAKSIAGLVQNFITTLDAIRLNFIAKDQLHPLLSELIVSMDDLTESLKIQVSCRNKLVQWLIKINNMNITDQLNDVEKRELLYDLEQAYAECYSLL

binding [4]: binds
B5: Schizosaccharomyces pombe Sst6 (protein, UniProt Q7Z992 1-487)
chain: MSDHAINEHPSRILNTIEKIRFWKNGLAEELELLFRKQCEDTFTLQAINIEVDTQDENKIEEVRIYLSTPAFDKTILTSACITVRSYYPSQPPIVQLLDEKGGKHKYTSLLLQLWKNERSVFNIYRLVQALIKQDFEREHTSPPELPTKLVNTIEKLKVKEENEAPPVIPAKPFSSSSEQHFRKVPALPSKLPPKPLKITANSSLGQETNSNSSSFQSTLFSLNTAPFSATSQQLVHDSVSLRRPSSNIPAQKPIPPKPEQNEIIITKDTPSLKDKYSKPALLPQKPKVSKGQIVQQVSVFSTGKKIESQSLLNLIDTDIETPLKGSSELLYSEDFKPNVDPVKIQQILHKQNKIIEEKWISQIRISKNLEVKQRLLDQERHALETLAKNIENNRFILGKRRRKAREALQKLDNLKDLSVQELFIIPSERELKYYELKRKDEKLDEGIRALNQALHHESIMPASWLKGIKLLARQQFLIRDEMLQYS

— doi:10.1101/2021.08.17.456605
